From the supplement of paper PMC12823440, “Inhibitors supercharge kinase turnover through native proteolytic circuits” (Nature, 2025)
Where a name gives a salt, the structure may show the parent alone. The list shows a part of the results. Hit calls seldom repeat between salt and free forms of one compound.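 In K562 cells expressing nanoluciferase-fused kinases, luminescence was recorded at 4 h intervals between 2 and 18 h, normalized as percent of control with DMSO at 100% and a positive control at 0%. A significant (2 sigma) signal drop marks a time point as decreased. The authors' rule for a hit is not shown and takes in more than the number of time points.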

Sequences of proteins named here, by UniProt entry; tags and fusion partners are left off. A change or cut given only in a name is not applied to a line headed by its entry.
UniProt Q01974, whole entry: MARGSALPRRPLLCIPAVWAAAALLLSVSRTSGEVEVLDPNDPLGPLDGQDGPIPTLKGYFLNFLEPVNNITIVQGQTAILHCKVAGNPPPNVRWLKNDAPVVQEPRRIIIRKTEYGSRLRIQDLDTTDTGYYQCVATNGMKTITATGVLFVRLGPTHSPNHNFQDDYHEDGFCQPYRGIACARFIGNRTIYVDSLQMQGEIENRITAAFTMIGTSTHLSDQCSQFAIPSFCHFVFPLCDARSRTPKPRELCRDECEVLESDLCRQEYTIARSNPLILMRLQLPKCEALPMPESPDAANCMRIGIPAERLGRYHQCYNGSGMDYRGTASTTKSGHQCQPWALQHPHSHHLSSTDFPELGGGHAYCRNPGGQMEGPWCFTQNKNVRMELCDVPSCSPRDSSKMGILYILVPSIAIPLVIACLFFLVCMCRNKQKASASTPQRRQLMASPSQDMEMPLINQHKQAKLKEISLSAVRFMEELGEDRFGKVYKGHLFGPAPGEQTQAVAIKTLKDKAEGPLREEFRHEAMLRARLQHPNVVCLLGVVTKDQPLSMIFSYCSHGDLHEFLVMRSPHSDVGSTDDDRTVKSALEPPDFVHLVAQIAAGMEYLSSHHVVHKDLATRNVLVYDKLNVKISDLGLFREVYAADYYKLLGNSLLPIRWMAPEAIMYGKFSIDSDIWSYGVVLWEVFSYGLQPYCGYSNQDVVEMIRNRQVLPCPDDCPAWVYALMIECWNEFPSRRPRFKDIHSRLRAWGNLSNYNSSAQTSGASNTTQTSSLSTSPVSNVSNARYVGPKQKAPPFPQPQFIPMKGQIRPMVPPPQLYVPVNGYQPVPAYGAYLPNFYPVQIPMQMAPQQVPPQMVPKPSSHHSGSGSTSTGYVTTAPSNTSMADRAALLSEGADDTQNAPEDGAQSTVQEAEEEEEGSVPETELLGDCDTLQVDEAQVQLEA
UniProt Q9NYA1, whole entry: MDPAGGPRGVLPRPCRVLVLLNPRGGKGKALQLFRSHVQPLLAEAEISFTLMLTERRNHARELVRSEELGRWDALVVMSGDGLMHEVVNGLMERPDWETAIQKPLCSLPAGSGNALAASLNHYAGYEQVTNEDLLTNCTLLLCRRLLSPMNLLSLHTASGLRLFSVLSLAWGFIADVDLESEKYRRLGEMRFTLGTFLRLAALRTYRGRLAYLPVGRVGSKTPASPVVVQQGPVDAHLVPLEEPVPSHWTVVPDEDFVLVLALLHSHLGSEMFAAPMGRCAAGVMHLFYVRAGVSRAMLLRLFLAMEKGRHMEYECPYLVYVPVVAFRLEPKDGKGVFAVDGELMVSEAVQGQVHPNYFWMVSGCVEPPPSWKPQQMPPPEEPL
UniProt Q9Y6E0: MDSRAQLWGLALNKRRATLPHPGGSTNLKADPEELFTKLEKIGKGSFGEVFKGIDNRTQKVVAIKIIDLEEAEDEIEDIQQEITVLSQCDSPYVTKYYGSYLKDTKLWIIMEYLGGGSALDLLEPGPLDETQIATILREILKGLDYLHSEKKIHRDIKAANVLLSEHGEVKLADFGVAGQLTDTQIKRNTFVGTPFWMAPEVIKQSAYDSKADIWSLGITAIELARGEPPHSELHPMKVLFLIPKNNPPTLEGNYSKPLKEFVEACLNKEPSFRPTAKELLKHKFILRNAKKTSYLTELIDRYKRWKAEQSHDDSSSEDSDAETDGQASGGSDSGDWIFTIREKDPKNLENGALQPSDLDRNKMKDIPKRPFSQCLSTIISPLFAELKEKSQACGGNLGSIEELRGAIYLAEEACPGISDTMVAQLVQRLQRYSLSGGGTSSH
UniProt P42680: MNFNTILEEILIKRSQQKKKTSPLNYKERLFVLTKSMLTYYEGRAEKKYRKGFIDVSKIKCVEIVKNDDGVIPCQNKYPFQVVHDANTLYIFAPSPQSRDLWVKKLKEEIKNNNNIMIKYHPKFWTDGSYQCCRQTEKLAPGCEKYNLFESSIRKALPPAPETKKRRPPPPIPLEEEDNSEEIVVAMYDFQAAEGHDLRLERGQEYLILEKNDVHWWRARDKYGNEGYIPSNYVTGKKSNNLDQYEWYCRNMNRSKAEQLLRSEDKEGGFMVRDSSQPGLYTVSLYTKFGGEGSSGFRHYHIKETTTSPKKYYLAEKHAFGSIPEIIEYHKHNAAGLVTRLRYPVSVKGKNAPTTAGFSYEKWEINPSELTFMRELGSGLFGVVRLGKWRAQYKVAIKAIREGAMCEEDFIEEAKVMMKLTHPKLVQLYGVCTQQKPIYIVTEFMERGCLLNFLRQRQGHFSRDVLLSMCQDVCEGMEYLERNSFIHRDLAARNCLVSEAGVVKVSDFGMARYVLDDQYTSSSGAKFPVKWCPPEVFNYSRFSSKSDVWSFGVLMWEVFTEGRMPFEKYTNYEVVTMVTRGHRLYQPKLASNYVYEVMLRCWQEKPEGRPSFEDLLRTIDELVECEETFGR
UniProt P29597: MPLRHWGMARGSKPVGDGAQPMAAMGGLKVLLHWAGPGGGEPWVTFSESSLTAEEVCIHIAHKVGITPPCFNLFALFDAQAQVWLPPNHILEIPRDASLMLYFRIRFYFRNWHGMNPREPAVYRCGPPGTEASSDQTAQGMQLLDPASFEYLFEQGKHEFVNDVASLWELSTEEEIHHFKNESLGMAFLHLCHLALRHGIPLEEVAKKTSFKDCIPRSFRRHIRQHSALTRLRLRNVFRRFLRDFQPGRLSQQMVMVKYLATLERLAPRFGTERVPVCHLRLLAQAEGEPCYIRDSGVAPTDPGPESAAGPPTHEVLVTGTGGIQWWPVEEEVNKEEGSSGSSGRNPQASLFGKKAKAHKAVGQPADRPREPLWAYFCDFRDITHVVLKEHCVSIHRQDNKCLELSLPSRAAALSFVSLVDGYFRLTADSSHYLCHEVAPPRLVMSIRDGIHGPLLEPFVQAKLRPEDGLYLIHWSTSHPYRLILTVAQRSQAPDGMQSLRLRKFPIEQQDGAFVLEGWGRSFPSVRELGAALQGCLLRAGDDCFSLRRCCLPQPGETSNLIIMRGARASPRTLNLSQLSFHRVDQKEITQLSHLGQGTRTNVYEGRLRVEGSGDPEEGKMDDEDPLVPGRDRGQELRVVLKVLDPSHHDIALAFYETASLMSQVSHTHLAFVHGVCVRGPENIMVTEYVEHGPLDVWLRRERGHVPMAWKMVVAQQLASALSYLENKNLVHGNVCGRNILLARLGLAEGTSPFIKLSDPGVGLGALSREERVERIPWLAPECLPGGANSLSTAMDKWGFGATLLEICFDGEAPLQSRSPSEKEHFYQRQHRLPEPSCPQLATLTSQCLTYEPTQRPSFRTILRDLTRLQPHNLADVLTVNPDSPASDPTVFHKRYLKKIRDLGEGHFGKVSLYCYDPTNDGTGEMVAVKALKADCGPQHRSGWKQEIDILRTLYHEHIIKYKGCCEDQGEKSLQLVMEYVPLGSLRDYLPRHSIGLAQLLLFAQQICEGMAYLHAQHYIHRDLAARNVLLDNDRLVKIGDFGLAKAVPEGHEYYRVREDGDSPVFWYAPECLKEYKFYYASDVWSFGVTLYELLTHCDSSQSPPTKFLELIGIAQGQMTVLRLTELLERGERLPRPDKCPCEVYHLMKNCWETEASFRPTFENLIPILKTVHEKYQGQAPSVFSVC
UniProt Q6PHR2: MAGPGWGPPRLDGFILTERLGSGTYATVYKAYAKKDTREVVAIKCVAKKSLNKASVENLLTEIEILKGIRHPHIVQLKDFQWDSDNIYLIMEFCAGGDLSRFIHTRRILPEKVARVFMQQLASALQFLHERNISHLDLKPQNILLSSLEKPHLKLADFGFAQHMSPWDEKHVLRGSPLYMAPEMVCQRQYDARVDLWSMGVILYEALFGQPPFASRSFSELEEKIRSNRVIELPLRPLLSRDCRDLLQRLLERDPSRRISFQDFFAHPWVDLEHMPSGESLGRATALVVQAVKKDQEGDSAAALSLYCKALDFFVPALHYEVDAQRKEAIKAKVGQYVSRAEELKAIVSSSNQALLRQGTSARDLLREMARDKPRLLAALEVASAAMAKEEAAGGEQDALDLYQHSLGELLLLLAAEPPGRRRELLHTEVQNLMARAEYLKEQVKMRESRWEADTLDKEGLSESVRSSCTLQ
UniProt P07947, whole entry, looked up: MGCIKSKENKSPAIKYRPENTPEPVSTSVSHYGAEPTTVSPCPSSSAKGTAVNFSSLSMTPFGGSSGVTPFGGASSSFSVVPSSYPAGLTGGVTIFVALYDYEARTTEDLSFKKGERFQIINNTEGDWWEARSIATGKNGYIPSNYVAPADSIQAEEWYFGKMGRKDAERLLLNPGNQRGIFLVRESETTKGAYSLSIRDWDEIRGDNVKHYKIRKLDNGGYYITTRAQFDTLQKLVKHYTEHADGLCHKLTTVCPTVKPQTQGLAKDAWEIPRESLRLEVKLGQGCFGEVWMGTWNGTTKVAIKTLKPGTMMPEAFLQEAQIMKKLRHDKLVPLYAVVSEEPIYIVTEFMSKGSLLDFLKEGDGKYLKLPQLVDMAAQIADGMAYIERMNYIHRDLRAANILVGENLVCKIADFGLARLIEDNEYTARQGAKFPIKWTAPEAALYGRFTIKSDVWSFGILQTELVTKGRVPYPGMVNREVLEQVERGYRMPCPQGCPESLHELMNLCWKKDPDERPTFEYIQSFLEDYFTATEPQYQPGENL
UniProt P43403: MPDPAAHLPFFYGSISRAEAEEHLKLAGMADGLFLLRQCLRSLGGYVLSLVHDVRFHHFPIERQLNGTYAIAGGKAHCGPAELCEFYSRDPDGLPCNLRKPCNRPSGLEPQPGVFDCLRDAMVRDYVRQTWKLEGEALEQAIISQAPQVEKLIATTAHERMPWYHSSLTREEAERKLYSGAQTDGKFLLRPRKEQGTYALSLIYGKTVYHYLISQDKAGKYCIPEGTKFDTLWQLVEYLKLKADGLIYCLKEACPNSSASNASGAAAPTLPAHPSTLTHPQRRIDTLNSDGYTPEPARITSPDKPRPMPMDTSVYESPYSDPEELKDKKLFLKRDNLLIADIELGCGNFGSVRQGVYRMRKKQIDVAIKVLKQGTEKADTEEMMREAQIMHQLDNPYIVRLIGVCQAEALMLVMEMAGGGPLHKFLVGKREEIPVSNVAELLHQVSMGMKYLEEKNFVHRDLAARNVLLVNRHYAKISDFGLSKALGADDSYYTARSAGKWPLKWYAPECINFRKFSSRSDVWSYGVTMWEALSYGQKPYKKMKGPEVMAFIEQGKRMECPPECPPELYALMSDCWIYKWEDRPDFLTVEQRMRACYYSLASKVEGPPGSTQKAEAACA
UniProt P11802: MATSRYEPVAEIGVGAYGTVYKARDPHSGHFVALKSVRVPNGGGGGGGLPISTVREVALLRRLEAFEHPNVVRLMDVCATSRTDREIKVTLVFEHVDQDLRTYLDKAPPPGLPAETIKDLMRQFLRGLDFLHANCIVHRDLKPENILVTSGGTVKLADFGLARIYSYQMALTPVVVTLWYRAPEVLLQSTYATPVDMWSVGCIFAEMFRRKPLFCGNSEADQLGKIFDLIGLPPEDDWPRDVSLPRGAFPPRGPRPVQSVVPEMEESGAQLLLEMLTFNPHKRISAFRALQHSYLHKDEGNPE
UniProt P50613: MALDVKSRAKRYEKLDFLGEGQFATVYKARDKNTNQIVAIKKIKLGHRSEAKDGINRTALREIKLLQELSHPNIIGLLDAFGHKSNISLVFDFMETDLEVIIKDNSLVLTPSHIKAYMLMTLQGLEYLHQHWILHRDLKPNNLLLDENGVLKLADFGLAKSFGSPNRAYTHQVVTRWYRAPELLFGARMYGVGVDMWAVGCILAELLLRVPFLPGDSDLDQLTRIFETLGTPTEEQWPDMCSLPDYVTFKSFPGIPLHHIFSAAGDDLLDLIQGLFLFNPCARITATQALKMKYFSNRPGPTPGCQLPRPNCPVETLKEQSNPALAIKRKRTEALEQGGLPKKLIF
UniProt P50750, whole entry: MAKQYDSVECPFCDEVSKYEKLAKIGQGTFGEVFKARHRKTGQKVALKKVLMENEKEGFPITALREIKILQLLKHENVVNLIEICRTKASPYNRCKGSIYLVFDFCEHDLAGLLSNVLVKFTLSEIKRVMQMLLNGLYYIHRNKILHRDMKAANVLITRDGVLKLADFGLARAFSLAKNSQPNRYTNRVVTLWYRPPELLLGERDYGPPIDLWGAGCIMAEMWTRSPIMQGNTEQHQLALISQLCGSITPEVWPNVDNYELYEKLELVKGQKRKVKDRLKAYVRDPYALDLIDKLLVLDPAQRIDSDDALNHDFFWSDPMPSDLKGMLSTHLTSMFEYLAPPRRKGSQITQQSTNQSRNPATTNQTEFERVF

Legend:
Conditions in all cases: K562; 2-18 h
ROR2 = ROR2 (UniProt Q01974); assay: number of time points (of 5) at which kinase-Nluc abundance scored as decreased, DMSO-normalised (count); higher = more persistent destabilization
RPS6KA1 = RPS6KA1 (UniProt Q15418); assay: as above
SPHK1 = SPHK1 (UniProt Q9NYA1); assay: as above
SRC = SRC (UniProt P12931); assay: as above
STK24 = STK24 (UniProt Q9Y6E0); assay: as above
STK38 = STK38 (UniProt Q15208); assay: as above
SYK = SYK (UniProt P43405); assay: as above
TEC = TEC (UniProt P42680); assay: as above
TYK2 = TYK2 (UniProt P29597); assay: as above
ULK3 = ULK3 (UniProt Q6PHR2); assay: as above
YES1 = YES1 (UniProt P07947); assay: as above
ZAK = ZAK (UniProt Q9NYL2); assay: as above
ZAP70 = ZAP70 (UniProt P43403); assay: as above
CDK4 = CDK4 (UniProt P11802); assay: number of time points (of 4; 2 h point missing) at which kinase-Nluc abundance scored as decreased, DMSO-normalised (count); higher = more persistent destabilization
CDK7 = CDK7 (UniProt P50613); assay: as above
CDK9 = CDK9 (UniProt P50750); assay: as above

Measured: number of time points

O=C(Nc1ccc(F)cc1F)C(NC(=S)Nc1cc(C(F)(F)F)cc(C(F)(F)F)c1)c1ccccc1 (racemic) (2.5 µM)
0: all assays above

CC1(C)C=Cc2c(ccc(C(=O)/C=C/c3ccc(O)cc3)c2O)O1 [4-Hydroxylonchocarpin] (10 µM)
0: all assays above

O=C(COc1ccc(Cl)cc1)NC1CCC(NC(=O)COc2ccc(Cl)cc2)CC1 (stereo not drawn) [ISRIB (trans-isomer)] (10 µM)
0: all assays above

Cc1nn(CC(F)(F)F)cc1Nc1ncc(Br)c(NCc2ccc(S(N)(=O)=O)cc2)n1 (10 µM)
0: all assays above

CN(C)C(=O)c1cc2cnc(Nc3ccc(N4CCN(CCCCNC(=O)COc5cccc6c5C(=O)N(C5CCC(=O)NC5=O)C6=O)CC4)cn3)nc2n1C1CCCC1 (stereo not given) (10 µM)
0: all assays above

Random excerpt: two compounds from above, in no set order.
O=C(Nc1ccc(F)cc1F)C(NC(=S)Nc1cc(C(F)(F)F)cc(C(F)(F)F)c1)c1ccccc1 (racemic) (2.5 µM)
0: all assays above

CC1(C)C=Cc2c(ccc(C(=O)/C=C/c3ccc(O)cc3)c2O)O1 [4-Hydroxylonchocarpin] (10 µM)
0: all assays above

Going on with the list.

CO[C@@H]1[C@H](N(C)C(=O)c2ccccc2)C[C@H]2O[C@]1(C)n1c3ccccc3c3c4c(c5c6ccccc6n2c5c31)C(=O)NC4 [Midostaurin] (2.5 µM)
4: ULK3
1: STK38
3: TYK2
0: all other assays above

COc1ccc(CCNCc2ccc(OCc3ccc(Cl)nc3)c(OC)c2)cc1OC [SBE13 (Hydrochloride)] (10 µM)
0: all assays above

COc1cc(N2CCC(N3CCN(C)CC3)CC2)ccc1Nc1ncnc(Nc2ccccc2S(=O)(=O)C(C)C)n1 (10 µM)
0: all assays above

CN1CCN(c2ccc(-c3ccncc3-c3cc(F)c(O)c(F)c3)cc2)CC1 (10 µM)
0: all assays above

C[C@@H](NC(=O)c1ncnc(N)c1Cl)c1ncc(C(=O)Nc2cc(C(F)(F)F)c(Cl)cn2)s1 (2.5 µM)
3: SPHK1 | TYK2 | ULK3 | CDK7
1: STK38 | ZAK
2: TEC | YES1 | CDK9
0: all other assays above

O=C(Nc1ccnc(NC(=O)C2CC2)c1)c1c(Cl)cccc1Cl (10 µM)
0: all assays above

COc1ccc(CN2CCC(c3ccc4nc(C(=O)N5CCN(Cc6ccc(C(F)(F)F)cc6)CC5)[nH]c4c3)CC2)cn1 (2.5 µM)
1: CDK7
2: TEC
0: all other assays above

N=C(NC(=N)N1CCCC1)Nc1ccc(OC(F)(F)F)cc1 (10 µM)
0: all assays above

O=c1cc(N2CCOCC2)oc2c(-c3cccc4c3sc3ccccc34)cccc12 (10 µM)
0: all assays above

Cn1c(N2CCO[C@@H](c3ccc(F)cc3)C2)nc(-c2ccncn2)cc1=O (10 µM)
0: all assays above
